Data from patent US20190291112A1, “DROPLET MICROFLUIDICS FOR DRUG SCREENING” (University of Macau, priority 2018, published 2019).

Key:
Assay type in all cases: cell-based
Jurkat cells [1] = test: 96-well microtiter plate drug screening assay (Alamar Blue); settings: Homo sapiens, 96-well plate, 16-24 h
Experimental: (§1) Jurkat E6.1 cells (ATCC® TIB-152™) and MDA-MB-231 cells (ATCC® HTB-26™) were used as models for suspended and adherent cancer cell lines respectively. Jurkat cell line was derived from human acute T cell leukemia, whereas MDA-MB-231 cell line was derived from human metastatic breast adenocarcinoma.
(§2) Microtiter plate drug screening assays were carried out on 96-well clear round flat-bottom plates (Corning, USA) or 384-well white square flat-bottom plates (Corning, USA).
(§3) First, 5.0×10^5 or 1.0×10^5 cells were seeded per well for 96-well and 384-well plates respectively. Drugs were diluted with Dulbecco's phosphate-buffered saline (DPBS) (Life Technologies, USA), and subsequently added to achieve final drug concentrations as indicated on the graphs. Afterwards, the plates were transferred to humidified incubator at 37° C. supplemented with 5% CO2 for 16-24 h incubation. Finally, Alamar Blue assay was used to measure cell viability. Fluorescence intensity (Ex. 560 nm, Em. 590 nm) using auto-cutoff was measured from bottom on plate reader (Molecular Devices SpectraMax MS Plate Reader, USA). […]
(§4) For microliter plate assays, average relative fluorescence signal measured by plate reader from 6 reads of each well was used as raw data point. Cell viability was calculated as follows: […]

Jurkat cells [2] = test: 384-well microtiter plate drug screening assay (Alamar Blue); settings: Homo sapiens, 384-well plate, 16-24 h
Experimental: as §1, §2, §3, §4

Jurkat cells [3] = test: On chip drug screening assay (ethidium homodimer 1 staining); settings: Homo sapiens, 16-24 h
Experimental: Jurkat E6.1 cells (ATCC® TIB-152™) and MDA-MB-231 cells (ATCC® HTB-26™) were used as models for suspended and adherent cancer cell lines respectively. Jurkat cell line was derived from human acute T cell leukemia, whereas MDA-MB-231 cell line was derived from human metastatic breast adenocarcinoma. On chip drug screening was performed using the PDMS-based microfluidic chip as described above. A 500 μL glass syringe (Hamilton, USA) and polytetrafluoroethylene (PTFE) tubings with appropriate bore (Cole Parmer, USA) was used to connect between the syringe pump (Harvard Apparatus PHD Ultra Syringe Pump, USA) and the microfluidic chip. […] Brightfield and red fluorescence images (Ex. 531/40 nm, Em. 593/40 nm) were taken under 10× magnification (Life Technologies EVOS FL Imaging System, USA). For on chip assays, brightfield and red fluorescence images were initially processed by ImageJ v.1.50i, Cell counting was either performed manually or by Matlab v.R201.5a based on the workflow shown on FIG. 5B. Briefly, cells from brightfield and red fluorescence images were detected separately using a heuristic Hough Transformation model based on threshold implementation on circular diameter and pixel intensity. […] Afterwards, cells were distinguished from noise based on the brightfield image, whereas cell viability was determined by signal intensity of corresponding red fluorescence image. […]

IC50 (Jurkat cells [1]): > 50 µM
IC50 (Jurkat cells [2]): > 50 µM
IC50 (Jurkat cells [3]): > 50 µM
Structure (SMILES): O=C(CCCCCCC(=O)Nc1ccccc1)NO [vorinostat]
